The test system of this series is human. The experiment in a line: Sensory evaluation of strength of bitter taste in human. The series is classed as in vivo. To be noted: 0 = no bitter taste, 5.0 = 0.001 g/dl capsazepine.
[1] abbreviates: sample 0.0001 g/dl in 0.8 g/dl sodium chloride.
Where [2] appears, read: sample 0.0005 g/dl in 0.8 g/dl sodium chloride.
The mark [3] stands for this setting: sample 0.001 g/dl in 0.8 g/dl sodium chloride.

Each structure is given as a SMILES string.

With `C[C@@H](NC(=S)NCCc1ccccc1)c1ccccc1` [Example 11], the “strength of bitter taste” value was 0.09 points under setting [1], 0.12 points under setting [2] and 0.16 points under setting [3].

`OC[C@@H](NC(=S)NCCc1ccccc1)c1ccccc1` [Example 51]: the “strength of bitter taste” value reads like this: under setting [1], 0.01 points; under setting [2], 0.11 points; under setting [3], 0.40 points.

Regarding `Oc1cc2c(cc1O)CN(C(=S)NCCc1ccc(Cl)cc1)CCC2` [capsazepine], the “strength of bitter taste” value worked out at 0.8 points under setting [1], 2.6 points under setting [2] and 5.0 points under setting [3].

The values are drawn from US20140004243A1, “SALTY TASTE ENHANCER” (AJINOMOTO CO., INC., priority 2011, published 2014).
